From paper PMC8073976, “Towards Targeted Alpha Therapy with Actinium-225: Chelators for Mild Condition Radiolabeling and Targeting PSMA—A Proof of Concept Study” (Cancers, 2021) come the findings set out here.

This data set is described as follows: 225Ac-labeling of ligands in serial dilution, radiochemical yield and 7-day stability by TLC. As to conditions: 100 kBq actinium-225, 0.2 M ammonium acetate buffer pH 6, room temperature; for RCY NP (1 h): normal phase TLC, silica, 50 mM EDTA pH 7; for RCY RP (1 h): reversed-phase TLC, Alugram RP-CN, acetonitrile/water 7/3. The data set is classed as physicochemical. How it is done:
To compare the efficiency of the synthesized chelators and their conjugates, 100 kBq of actinium-225 were incubated with each ligand at different concentrations (10^−5 M; 10^−6 M; 10^−7 M). The radiochemical yield was determined after one hour of reaction time using normal phase and reversed-phase TLC. Whereas one TLC-system was designed to move free actinium-225 with the solvent front, the other system was developed only to move the actinium-225 labeled complexes. Concentration-dependent radiochemical yields for all ligands and 7-day-longterm yields, which were calculated using both TLC systems, are presented in Table 1.
Actinium-225 was purchased as a 0.1 M HCl solution from ITM Munich and used without purification. Stem solutions of all ligands were prepared in concentrations of 10^−2 M and diluted to 10^−6 M using 0.2 M ammonium acetate buffer at pH 6. For concentration-dependent labeling experiments, 10 µL of each ligand stem solution was incubated with 100 kBq of actinium-225 (1–5 µL) and the total volume was adjusted to 100 µL with 0.2 M ammonium acetate buffer at pH 6. For stability analyses, 50 µL of the buffer volume were replaced by 50 µL of 0.2 M ascorbic acid or 50 µL of 2,5-dihydroxy benzoic acid, respectively. Labeling for cell-binding studies was performed using 1.5 MBq of actinium-225 and 4 nmol of the respective PSMA ligand in a total volume of 400 µL adjusted with 0.2 M ammonium acetate buffer at pH 6. Radiolabeling for cell survival studies and all in vivo experiments were performed using 1.5 MBq of actinium-225 and 3.3 nmol of the respective ligand.
All samples were incubated for one hour at room temperature and analyzed afterward. TLC analyses were carried out in two different systems, normal phase on silica plates in 50 mM EDTA solution (pH 7) and reversed-phase on Alugram RP-CN in acetonitrile/water (7/3). TLC plates were imaged using a phosphoimager Amersham Typhoon 5 Scanner (Cytiva Europe GmbH, Freiburg, Germany) after a decay time of at least 7 h. Analytical HPLC was performed using a Jasco HPLC system with RITA analyzer (Elysia-raytest GmbH, Straubenhardt, Germany) for gamma detection on a Phenomenex Phenyl-Hexyl column in water/acetonitrile (+ 0.1% TFA). Radioactivity was measured in Isomed 2100 dose calibrator. Low radioactivity count rates were determined in Isomed 2160 sodium iodide detector. More precise measurements and nuclide identification were carried out on an activity- and efficiency-calibrated HPGe detector CryoPulse 5 (Canberra).

As to `O=C(O)CCCCn1cc(COc2cc(CN3CCOCCOCCN(Cc4cccc(C(=O)[O-])n4)CCOCCOCC3)nc(C(=O)[O-])c2)nn1.[225Ac+3]` [[^225Ac]Ac-mcp-M-COOH], the “RCY NP (1 h)” value reads like this: (ligand 10^−5 M) 99%; (ligand 10^−6 M) 99%; (ligand 10^−7 M) 98%. In addition, the “RCY RP (1 h)” value by setting is: (ligand 10^−5 M) 99%; (ligand 10^−6 M) 98%; (ligand 10^−7 M) 98%.
As to `C#CCOc1cc(CN2CCOCCOCCN(Cc3cc(OCC#C)cc(C(=O)[O-])n3)CCOCCOCC2)nc(C(=O)[O-])c1.[225Ac+3]` [[^225Ac]Ac-mcp-D-click], the “RCY NP (1 h)” value worked out at 99% (ligand 10^−5 M), 99% (ligand 10^−6 M) and 52% (ligand 10^−7 M). Also, the “RCY RP (1 h)” value was found to be 99% (ligand 10^−5 M), 99% (ligand 10^−6 M) and 41% (ligand 10^−7 M).
For the compound `C#CCOc1cc(CN2CCOCCOCCN(Cc3cccc(C(=O)[O-])n3)CCOCCOCC2)nc(C(=O)[O-])c1.[225Ac+3]` [[^225Ac]Ac-mcp-M-click], the “RCY NP (1 h)” value was 99% (ligand 10^−5 M), 99% (ligand 10^−6 M) and 20% (ligand 10^−7 M). Further, the “RCY RP (1 h)” value (ligand 10^−5 M) is on record as 96%, the “RCY RP (1 h)” value (ligand 10^−6 M) is recorded as 97% and the “RCY RP (1 h)” value (ligand 10^−7 M) stood at 23%.
Take `O=C(O)CC[C@H](NC(=O)N[C@@H](CCCCNC(=O)[C@H](Cc1ccc2ccccc2c1)NC(=O)[C@H]1CC[C@H](CNC(=O)CCCCn2cc(COc3cc(CN4CCOCCOCCN(Cc5cccc(C(=O)O)n5)CCOCCOCC4)nc(C(=O)O)c3)nn2)CC1)C(=O)O)C(=O)O` [[^225Ac]Ac-mcp-M-PSMA, metal not drawn]: the “RCY NP (1 h)” value is, setting by setting: (ligand 10^−5 M) 99%; (ligand 10^−6 M) 99%; (ligand 10^−7 M) 89%.
Take `O=C([O-])c1cccc(CN2CCOCCOCCN(Cc3cccc(C(=O)[O-])n3)CCOCCOCC2)n1.[225Ac+3]` [[^225Ac]Ac-macropa, reference compound]: the “RCY NP (1 h)” value (ligand 10^−5 M) is given as 99%, the “RCY NP (1 h)” value (ligand 10^−6 M) was 99% and the “RCY NP (1 h)” value (ligand 10^−7 M) is recorded as 56%. Further, the “RCY RP (1 h)” value is given as 99% (ligand 10^−5 M), 90% (ligand 10^−6 M) and 37% (ligand 10^−7 M).
Take `O=C(O)CC[C@H](NC(=O)N[C@@H](CCCCNC(=O)[C@H](Cc1ccc2ccccc2c1)NC(=O)[C@H]1CC[C@H](CNC(=O)CCCCn2cc(COc3cc(CN4CCOCCOCCN(Cc5cc(OCc6cn(CCCCC(=O)NC[C@H]7CC[C@H](C(=O)N[C@@H](Cc8ccc9ccccc9c8)C(=O)NCCCC[C@H](NC(=O)N[C@@H](CCC(=O)O)C(=O)O)C(=O)O)CC7)nn6)cc(C(=O)O)n5)CCOCCOCC4)nc(C(=O)O)c3)nn2)CC1)C(=O)O)C(=O)O` [[^225Ac]Ac-mcp-D-PSMA, metal not drawn]: the “RCY NP (1 h)” value runs as follows: (ligand 10^−5 M) 99%; (ligand 10^−6 M) 99%; (ligand 10^−7 M) 93%.
